Results deposited as PubChem BioAssay AID1259308 (NCATS, 2017).
In all, the deposit lists about 59,000 reagents; this is an unselected part. About 1,510 of them (2.6%) count as active. 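Calls use total luciferase alone and ignore viability, so some active siRNAs may act by altering cell number.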 Unmarked entries are inactive. The numbers tell different reagents against one gene apart. Not all columns of the deposit are shown.

- Aim: 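Genes whose loss raises luciferase production in HEK293 cells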 (primary screen)
- System: human HEK293 embryonic kidney cells stably expressing firefly luciferase (HEK-CMV-Luc2-Hygro)
- Knock-down reagent: single siRNA against human genes, 0.8 pmol siRNA per well
- Time to read-out: 72 h
- Measurement: 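Luciferase light (ONE-Glo) measured on one replicate plate set and viability (CellTiter-Glo) on the other, scaled to a negative control siRNA, with robust z-scores and luciferase per cell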
- Scale: total luciferase, z-score and total luciferase, % of control: higher = more reporter protein produced; luciferase per cell, z-score: higher = more reporter output per viable cell
- Active means: 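An siRNA counts as active if its total luciferase robust z-score exceeds 3; genes with two or more such siRNAs out of three were retested with fresh siRNAs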
- Calls: active = raised luciferase; inactive = no rise

Gene | reagent | total luciferase, z-score | total luciferase, % of control | luciferase per cell, z-score
FAM209B | 1 | 0.401 | 89.9 | 0.535
FAM209B | 2 | 0.527 | 92.4 | 0.995
FAM209B | 3 | 0.62 | 94.2 | 0.624
SH3BGRL3 | 1 | 0.619 | 94.2 | 0.0729
SH3BGRL3 | 2 | 1.25 | 107 | 0.757
SH3BGRL3 | 3 | -0.243 | 77 | -0.269
ASMT | 1 | 1.11 | 104 | 1.05
ASMT | 2 | 0.131 | 84.5 | 0.643
ASMT | 3 | 1.87 | 119 | 1.45
KIR2DL4 | 1 | -0.182 | 78.3 | -0.184
KIR2DL4 | 2 | 0.0866 | 83.6 | -0.211
KIR2DL4 | 3 | -0.219 | 77.5 | 0.167

2 entries from above in another layout:
| Gene | reagent | total luciferase, z-score | total luciferase, % of control | luciferase per cell, z-score |
| --- | --- | --- | --- | --- |
| FAM209B | 2 | 0.527 | 92.4 | 0.995 |
| FAM209B | 3 | 0.62 | 94.2 | 0.624 |

Additional results follow:
Gene | reagent | total luciferase, z-score | total luciferase, % of control | luciferase per cell, z-score
TNFAIP8 | 1 | -0.195 | 78 | -0.84
TNFAIP8 | 2 | -0.123 | 79.4 | -0.662
TNFAIP8 | 3 | 0.347 | 88.8 | 0.0191
CD40 | 1 | -1.11 | 59.9 | -1.63
CD40 | 2 | 1.11 | 104 | 0.992
CD40 | 3 | -0.633 | 69.3 | -0.663
SH2D5 | 1 | -0.564 | 70.7 | -0.429
SH2D5 | 2 | -0.664 | 68.7 | 1.03
SH2D5 | 3 | -0.801 | 66 | -0.748
LINC-PINT | 1 | 1.53 | 112 | 1.36
LINC-PINT | 2 | 0.688 | 95.6 | 0.974
LINC-PINT | 3 | -1.23 | 57.3 | -0.496
LINC-PINT | 4 | 1.17 | 105 | 0.826
LINC-PINT | 5 | 0.215 | 86.2 | 0.418
LINC-PINT | 6 | 0.215 | 86.2 | 0.13
